Experimental findings from publication PMC12963305 are described below.

Chains of the proteins cited; added tags and fusions are not shown. Lines headed by an entry give the natural chain unless they say otherwise; changes in a name come on top.
UniProt P70658: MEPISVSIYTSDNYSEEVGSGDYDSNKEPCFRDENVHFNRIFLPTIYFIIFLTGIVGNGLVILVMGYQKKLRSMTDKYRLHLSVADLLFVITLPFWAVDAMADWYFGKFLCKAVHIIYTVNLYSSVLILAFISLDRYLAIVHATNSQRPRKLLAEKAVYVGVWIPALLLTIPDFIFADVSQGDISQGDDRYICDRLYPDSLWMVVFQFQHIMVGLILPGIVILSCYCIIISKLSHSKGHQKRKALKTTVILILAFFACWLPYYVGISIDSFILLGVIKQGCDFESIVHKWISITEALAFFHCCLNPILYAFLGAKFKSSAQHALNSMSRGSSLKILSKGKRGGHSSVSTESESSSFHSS
UniProt P40224: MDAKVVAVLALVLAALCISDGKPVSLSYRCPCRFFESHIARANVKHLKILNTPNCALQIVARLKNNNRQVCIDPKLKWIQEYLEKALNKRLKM

This experiment concerns the target murine chemokine receptor CXCR4 in the MALAR-Y2H receptor vector (mouse) (UniProt P70658). Kind of experiment: two-hybrid; MALAR-Y2H (membrane-anchored ligand and receptor, split ubiquitin) in S. cerevisiae Y2HGold; ligands in pGAD_SP-WBP1_cloning_linker_TMP_Cub_GAL4, receptors in pGBKT7_SP_OST1_cloning_NubG; growth on Leu-/Trp-/His- triple and Leu-/Trp-/Ade-/His- quadruple dropout plates at three densities, quantified as gray value (Fiji/ImageJ).

No constants are given. Whether binding was seen depends on the method and setting. Some binding calls cover weakened binding; strength is not graded here.

For the substance “murine chemokine CXCL12 in the MALAR-Y2H ligand vector (from UniProt P40224 1-93)”, the binding entry is given as “binds”.
